Measurements published in the supplement of paper PMC10849652.
The list shows a part of the results.

Protein sequences, listed by entry. Tags and fused reporters are not part of them. Lines headed by an entry give the natural chain unless they say otherwise; changes in a name come on top.
UniProt P49116: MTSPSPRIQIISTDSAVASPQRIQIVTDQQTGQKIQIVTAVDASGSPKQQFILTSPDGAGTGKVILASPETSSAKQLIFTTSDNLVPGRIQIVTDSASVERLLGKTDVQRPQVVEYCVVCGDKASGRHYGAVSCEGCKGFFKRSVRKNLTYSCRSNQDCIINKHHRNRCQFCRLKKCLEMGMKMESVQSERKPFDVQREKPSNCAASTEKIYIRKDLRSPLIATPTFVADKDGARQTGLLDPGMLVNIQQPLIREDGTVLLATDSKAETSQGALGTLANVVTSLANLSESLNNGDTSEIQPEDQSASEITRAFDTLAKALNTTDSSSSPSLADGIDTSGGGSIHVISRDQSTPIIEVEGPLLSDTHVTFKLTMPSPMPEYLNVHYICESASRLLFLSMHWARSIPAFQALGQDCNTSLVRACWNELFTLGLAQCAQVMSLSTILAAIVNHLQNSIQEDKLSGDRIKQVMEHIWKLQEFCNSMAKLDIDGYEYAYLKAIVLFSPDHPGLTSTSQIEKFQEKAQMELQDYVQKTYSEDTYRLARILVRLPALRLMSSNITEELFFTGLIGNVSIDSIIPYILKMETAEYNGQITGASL
UniProt Q8TB37: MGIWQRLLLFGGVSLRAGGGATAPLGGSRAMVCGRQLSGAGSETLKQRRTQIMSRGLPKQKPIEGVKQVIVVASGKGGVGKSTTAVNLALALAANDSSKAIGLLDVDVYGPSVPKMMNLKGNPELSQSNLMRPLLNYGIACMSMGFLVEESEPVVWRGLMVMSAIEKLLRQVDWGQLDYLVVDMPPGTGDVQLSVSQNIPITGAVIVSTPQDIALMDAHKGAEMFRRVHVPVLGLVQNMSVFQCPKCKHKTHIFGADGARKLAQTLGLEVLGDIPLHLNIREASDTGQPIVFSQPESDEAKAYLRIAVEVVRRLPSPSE
UniProt Q9GZP1: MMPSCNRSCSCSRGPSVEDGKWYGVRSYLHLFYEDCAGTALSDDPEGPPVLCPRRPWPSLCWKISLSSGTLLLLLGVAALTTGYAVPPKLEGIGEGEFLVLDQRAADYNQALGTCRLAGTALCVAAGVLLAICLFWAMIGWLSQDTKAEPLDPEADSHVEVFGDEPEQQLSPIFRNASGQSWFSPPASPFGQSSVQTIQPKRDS
UniProt Q6ZVK8: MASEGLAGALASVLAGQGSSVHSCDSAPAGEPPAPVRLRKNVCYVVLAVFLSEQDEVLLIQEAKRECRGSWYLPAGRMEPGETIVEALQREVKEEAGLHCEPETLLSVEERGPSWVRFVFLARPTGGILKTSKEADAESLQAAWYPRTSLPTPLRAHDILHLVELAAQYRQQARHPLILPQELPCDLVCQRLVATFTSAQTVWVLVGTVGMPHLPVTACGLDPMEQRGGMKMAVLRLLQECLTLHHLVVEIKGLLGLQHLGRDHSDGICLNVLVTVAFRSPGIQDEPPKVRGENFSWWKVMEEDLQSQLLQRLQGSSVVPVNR
UniProt Q76FK4: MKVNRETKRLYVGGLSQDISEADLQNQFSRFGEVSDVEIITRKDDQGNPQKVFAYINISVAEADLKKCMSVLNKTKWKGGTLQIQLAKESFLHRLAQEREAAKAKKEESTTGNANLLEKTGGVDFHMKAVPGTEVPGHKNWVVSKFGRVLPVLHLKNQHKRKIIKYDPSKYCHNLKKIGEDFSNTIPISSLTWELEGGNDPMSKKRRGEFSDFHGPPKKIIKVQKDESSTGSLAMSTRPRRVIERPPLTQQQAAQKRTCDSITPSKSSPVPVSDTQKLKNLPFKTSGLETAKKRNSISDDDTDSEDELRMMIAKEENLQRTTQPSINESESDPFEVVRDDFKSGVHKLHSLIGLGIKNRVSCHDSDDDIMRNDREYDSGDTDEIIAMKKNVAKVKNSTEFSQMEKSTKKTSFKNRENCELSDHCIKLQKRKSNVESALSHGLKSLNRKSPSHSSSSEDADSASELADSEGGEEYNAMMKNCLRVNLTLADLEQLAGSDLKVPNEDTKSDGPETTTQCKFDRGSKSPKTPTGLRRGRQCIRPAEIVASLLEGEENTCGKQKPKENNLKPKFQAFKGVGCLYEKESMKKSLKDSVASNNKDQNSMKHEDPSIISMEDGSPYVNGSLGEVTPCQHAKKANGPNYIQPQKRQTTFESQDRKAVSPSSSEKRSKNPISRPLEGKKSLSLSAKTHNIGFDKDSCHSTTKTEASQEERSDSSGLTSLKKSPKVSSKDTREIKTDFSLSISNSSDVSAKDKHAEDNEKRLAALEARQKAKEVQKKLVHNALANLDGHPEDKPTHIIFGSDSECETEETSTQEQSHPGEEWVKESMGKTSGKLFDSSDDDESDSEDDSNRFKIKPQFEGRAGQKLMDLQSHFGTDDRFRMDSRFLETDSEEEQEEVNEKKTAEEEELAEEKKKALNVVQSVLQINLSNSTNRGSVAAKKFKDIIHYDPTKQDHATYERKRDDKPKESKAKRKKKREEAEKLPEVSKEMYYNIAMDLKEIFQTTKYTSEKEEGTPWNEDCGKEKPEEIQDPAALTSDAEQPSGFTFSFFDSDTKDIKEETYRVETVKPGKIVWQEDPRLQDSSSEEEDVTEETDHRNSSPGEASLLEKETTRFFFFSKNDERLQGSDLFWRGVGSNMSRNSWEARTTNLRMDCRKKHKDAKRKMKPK
UniProt Q9Y5A7: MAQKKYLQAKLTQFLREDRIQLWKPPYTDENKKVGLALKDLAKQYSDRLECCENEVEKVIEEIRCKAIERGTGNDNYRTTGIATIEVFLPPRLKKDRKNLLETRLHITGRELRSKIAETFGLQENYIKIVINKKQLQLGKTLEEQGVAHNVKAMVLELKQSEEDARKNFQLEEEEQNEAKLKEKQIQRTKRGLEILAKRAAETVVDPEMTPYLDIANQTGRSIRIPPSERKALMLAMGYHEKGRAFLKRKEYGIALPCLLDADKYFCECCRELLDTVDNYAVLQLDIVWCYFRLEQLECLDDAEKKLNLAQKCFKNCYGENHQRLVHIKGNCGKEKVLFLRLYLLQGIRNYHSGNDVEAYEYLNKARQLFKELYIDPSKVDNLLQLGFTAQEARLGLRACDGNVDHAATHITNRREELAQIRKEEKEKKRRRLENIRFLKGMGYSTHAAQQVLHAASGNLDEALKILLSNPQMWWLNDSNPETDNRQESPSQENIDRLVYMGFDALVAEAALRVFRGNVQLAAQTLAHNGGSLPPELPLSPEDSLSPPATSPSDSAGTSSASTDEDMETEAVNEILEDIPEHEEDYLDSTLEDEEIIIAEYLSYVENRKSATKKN
UniProt Q9NXX6: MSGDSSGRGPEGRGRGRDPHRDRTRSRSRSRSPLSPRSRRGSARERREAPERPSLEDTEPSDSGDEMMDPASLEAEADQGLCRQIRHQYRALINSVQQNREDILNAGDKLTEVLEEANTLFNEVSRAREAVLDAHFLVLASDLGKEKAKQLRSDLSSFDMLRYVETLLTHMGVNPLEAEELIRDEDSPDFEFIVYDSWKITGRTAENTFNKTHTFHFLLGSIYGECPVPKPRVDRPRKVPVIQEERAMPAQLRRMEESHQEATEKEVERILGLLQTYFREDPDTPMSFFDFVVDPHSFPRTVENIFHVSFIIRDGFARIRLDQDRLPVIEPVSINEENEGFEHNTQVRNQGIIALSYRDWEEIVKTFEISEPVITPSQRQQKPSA
UniProt O96028: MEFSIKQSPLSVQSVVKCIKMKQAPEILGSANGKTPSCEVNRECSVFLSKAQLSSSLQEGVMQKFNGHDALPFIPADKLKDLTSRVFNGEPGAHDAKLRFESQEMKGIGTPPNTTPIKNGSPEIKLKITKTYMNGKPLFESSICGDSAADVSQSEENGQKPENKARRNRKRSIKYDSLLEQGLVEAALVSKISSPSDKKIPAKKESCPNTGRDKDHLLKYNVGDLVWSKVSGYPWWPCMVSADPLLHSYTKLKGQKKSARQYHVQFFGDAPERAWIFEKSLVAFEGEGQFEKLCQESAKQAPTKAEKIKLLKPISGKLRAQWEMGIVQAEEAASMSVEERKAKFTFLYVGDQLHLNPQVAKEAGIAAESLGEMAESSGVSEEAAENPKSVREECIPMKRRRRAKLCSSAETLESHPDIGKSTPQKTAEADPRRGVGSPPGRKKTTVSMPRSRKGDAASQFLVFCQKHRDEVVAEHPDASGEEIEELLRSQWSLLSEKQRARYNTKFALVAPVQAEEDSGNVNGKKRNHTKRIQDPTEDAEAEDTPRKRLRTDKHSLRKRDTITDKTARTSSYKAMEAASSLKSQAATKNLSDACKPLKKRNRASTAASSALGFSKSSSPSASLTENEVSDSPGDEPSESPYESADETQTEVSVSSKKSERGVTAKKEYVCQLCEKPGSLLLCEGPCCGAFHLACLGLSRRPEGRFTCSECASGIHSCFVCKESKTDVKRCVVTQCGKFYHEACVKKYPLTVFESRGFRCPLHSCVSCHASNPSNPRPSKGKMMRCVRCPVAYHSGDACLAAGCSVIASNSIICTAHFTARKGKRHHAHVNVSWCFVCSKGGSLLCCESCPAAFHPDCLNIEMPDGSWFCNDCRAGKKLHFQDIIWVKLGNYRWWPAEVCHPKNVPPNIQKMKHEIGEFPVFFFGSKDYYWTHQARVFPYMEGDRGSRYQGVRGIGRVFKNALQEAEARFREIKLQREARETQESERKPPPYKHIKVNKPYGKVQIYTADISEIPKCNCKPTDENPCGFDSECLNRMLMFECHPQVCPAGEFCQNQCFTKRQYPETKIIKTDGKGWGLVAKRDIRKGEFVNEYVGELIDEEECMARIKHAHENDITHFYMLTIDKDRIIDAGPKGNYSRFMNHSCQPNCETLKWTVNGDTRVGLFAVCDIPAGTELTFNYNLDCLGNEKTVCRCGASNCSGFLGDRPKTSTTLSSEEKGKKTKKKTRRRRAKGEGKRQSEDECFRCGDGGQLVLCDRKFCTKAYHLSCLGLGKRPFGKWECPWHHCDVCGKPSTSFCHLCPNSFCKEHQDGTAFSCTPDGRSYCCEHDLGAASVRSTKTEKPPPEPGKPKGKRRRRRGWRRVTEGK
UniProt Q9Y314: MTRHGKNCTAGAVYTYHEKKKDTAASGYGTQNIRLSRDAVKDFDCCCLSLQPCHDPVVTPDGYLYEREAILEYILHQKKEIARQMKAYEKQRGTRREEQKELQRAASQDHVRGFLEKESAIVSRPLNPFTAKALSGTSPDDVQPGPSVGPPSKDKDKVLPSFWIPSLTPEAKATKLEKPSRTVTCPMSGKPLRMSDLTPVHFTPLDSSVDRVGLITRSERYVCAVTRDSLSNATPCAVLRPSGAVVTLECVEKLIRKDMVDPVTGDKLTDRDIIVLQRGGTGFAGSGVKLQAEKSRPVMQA
UniProt P15531, whole entry, looked up: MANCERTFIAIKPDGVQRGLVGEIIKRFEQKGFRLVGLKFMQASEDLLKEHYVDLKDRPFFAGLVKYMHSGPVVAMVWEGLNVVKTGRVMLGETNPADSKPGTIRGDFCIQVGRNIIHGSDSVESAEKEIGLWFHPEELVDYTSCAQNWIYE
UniProt P48645: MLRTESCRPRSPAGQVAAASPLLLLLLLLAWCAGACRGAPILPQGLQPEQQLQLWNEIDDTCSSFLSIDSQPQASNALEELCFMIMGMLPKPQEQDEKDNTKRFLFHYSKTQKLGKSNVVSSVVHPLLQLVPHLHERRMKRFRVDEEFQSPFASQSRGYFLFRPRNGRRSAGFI
UniProt O95848: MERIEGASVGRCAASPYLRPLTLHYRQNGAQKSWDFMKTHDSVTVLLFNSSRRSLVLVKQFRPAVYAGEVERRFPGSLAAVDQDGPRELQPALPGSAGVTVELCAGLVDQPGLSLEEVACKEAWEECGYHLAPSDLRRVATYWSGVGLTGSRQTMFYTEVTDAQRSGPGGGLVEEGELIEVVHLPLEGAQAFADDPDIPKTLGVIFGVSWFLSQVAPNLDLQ
UniProt Q9BXD5: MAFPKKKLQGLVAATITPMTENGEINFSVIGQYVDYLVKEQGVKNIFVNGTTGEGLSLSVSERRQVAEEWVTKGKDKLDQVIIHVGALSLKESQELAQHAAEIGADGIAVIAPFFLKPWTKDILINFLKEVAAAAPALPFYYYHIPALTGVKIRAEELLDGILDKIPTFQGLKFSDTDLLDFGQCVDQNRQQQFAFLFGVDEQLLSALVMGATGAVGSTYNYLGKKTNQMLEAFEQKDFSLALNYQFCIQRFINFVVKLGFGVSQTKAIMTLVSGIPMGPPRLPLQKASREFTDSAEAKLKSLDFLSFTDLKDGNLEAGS
UniProt P53370: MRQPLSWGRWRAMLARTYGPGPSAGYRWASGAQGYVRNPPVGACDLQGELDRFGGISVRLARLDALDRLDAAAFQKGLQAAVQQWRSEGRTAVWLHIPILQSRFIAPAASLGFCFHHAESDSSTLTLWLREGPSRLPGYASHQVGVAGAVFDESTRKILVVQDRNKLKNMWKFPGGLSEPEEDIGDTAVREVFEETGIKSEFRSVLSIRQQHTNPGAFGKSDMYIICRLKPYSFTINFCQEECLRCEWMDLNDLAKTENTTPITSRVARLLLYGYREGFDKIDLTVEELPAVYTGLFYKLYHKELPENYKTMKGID

Assays:
Experiment in all cases: log2 fold change, soluble protein after heating vs DMSO (PISA); higher = thermal stabilisation; K562 lysate, 10 uM; active = over 0.2 and 3.5 SD of the protein, either way, in both replicates (recomputed)
nilotinib = compound: Cc1cn(-c2cc(NC(=O)c3ccc(C)c(Nc4nccc(-c5cccnc5)n4)c3)cc(C(F)(F)F)c2)cn1 [nilotinib]
Method in brief: (§1)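 Dounce homogenisation of K562 pellets in PBS pH 7.4 with 1 mM MgCl2 produced a crude extract, used at 1 mg/mL protein. Exposure to 10 μM compound lasted 30 min, and aliquots were then heated for 3 min across 48°C-58°C, pooled and brought to 0.5% NP-40 at 4°C. The supernatant after 21,000xg for 90 min was quantified by TMTpro 16plex LC-MS/MS with channel sums equalised. Duplicate values are given as log-two fold change in thermal stability relative to solvent controls.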

[1] = compound: Cc1nc(Nc2n[nH]c3c2CN(C(=O)N[C@H](CN(C)C)c2ccccc2)C3(C)C)c2sccc2n1
Method in brief: as §1

[2] = compound: Cc1ncc(-c2ccnc(Nc3ccc(S(C)(=O)=O)cc3)n2)n1C(C)C
Method in brief: as §1

tipifarnib = compound: Cn1cncc1[C@@](N)(c1ccc(Cl)cc1)c1ccc2c(c1)c(-c1cccc(Cl)c1)cc(=O)n2C [tipifarnib]
Method in brief: as §1

[3] = compound: NC(=O)c1cnc(N[C@@H]2CCCC[C@@H]2N)nc1Nc1cccc(-n2nccn2)c1
Method in brief: as §1

dasatinib = compound: Cc1nc(Nc2ncc(C(=O)Nc3c(C)cccc3Cl)s2)cc(N2CCN(CCO)CC2)n1 [dasatinib]
Method in brief: as §1

[4] = compound: Cn1cc(-c2ccc3c(c2)CCN3C(=O)Cc2cccc(C(F)(F)F)c2)c2c(N)ncnc21
Method in brief: as §1

quisinostat = compound: Cn1cc(CNCC2CCN(c3ncc(C(=O)NO)cn3)CC2)c2ccccc21 [quisinostat]
Method in brief: as §1

[5] = compound: NC(=O)Nc1cc(-c2cccc(F)c2)sc1C(=O)N[C@H]1CCCNC1
Method in brief: as §1

[6] = compound: NC1(c2ccc(-c3nc4ccn5c(=O)[nH]nc5c4cc3-c3ccccc3)cc2)CCC1
Method in brief: as §1

NSDHL (UniProt C9JDR0)
log2 fold change (nilotinib): inactive: -0.177 | log2 fold change [1]: inactive: 0.165 | log2 fold change [2]: inactive: 0.056 | log2 fold change (tipifarnib): inactive: 0.006 | log2 fold change [3]: inactive: 0.048

NR2C2 isoform 2 (UniProt P49116)
log2 fold change (dasatinib): inactive: -0.033 | log2 fold change [4]: inactive: 0.064 | log2 fold change (quisinostat): inactive: -0.054 | log2 fold change [5]: inactive: 0.04 | log2 fold change [3]: inactive: -0.025 | log2 fold change [6]: inactive: -0.048

NUBPL (UniProt Q8TB37)
log2 fold change (dasatinib): inactive: -0.119 | log2 fold change [4]: inactive: 0.052

NRSN2 (UniProt Q9GZP1)
log2 fold change (dasatinib): inactive: 0.347 | log2 fold change [4]: inactive: 0.087

NOS3 (UniProt P29474)
log2 fold change (nilotinib): inactive: -0.304 | log2 fold change [1]: inactive: 0.032 | log2 fold change [2]: inactive: -0.016 | log2 fold change (tipifarnib): inactive: 0.24 | log2 fold change [6]: inactive: -0.06

NUDT18 (UniProt Q6ZVK8)
log2 fold change (quisinostat): inactive: 0.072 | log2 fold change [5]: inactive: -0.042 | log2 fold change [6]: inactive: 0.064

NPRL2 (UniProt Q8WTW4)
log2 fold change (nilotinib): inactive: -0.142 | log2 fold change [1]: inactive: -0.017 | log2 fold change [2]: inactive: 0.179 | log2 fold change (quisinostat): inactive: -0.046 | log2 fold change (tipifarnib): inactive: -0.049 | log2 fold change [5]: inactive: 0.071

NOL8 (UniProt Q76FK4)
log2 fold change (dasatinib): inactive: 0.073 | log2 fold change [4]: inactive: 0.005 | log2 fold change (quisinostat): inactive: -0.09 | log2 fold change [5]: inactive: 0.039 | log2 fold change [3]: inactive: -0.123 | log2 fold change [6]: inactive: -0.006

NUDT22 (UniProt Q9BRQ3)
log2 fold change (nilotinib): inactive: 0.055 | log2 fold change [1]: inactive: -0.065 | log2 fold change [2]: inactive: 0.021 | log2 fold change (quisinostat): inactive: 0.02 | log2 fold change (tipifarnib): inactive: -0.046 | log2 fold change [5]: inactive: 0.033 | log2 fold change [3]: inactive: -0.024 | log2 fold change [6]: inactive: -0.267

NME3 (UniProt H3BPR2)
log2 fold change [3]: inactive: 0.007

NRDE2 (UniProt Q9H7Z3)
log2 fold change (nilotinib): inactive: -0.058 | log2 fold change [1]: inactive: -0.023 | log2 fold change (dasatinib): inactive: 0 | log2 fold change [2]: inactive: 0.126 | log2 fold change [4]: inactive: -0.023 | log2 fold change (tipifarnib): inactive: 0.144 | log2 fold change [3]: inactive: 0.123

NTMT1 (UniProt S4R338)
log2 fold change [3]: inactive: -0.027

NOLC1 isoform 3 (UniProt Q14978)
log2 fold change (dasatinib): inactive: -0.052 | log2 fold change [4]: inactive: -0.012 | log2 fold change (quisinostat): inactive: 0.135 | log2 fold change [5]: inactive: 0.032 | log2 fold change [3]: inactive: 0.034 | log2 fold change [6]: inactive: 0.103

NUMB isoform 2 (UniProt P49757)
log2 fold change (nilotinib): inactive: -0.293 | log2 fold change [1]: inactive: -0.07 | log2 fold change (dasatinib): inactive: 0.227 | log2 fold change [2]: inactive: 0.225 | log2 fold change [4]: inactive: -0.127 | log2 fold change (tipifarnib): inactive: -0.068

NUB1 isoform 2 (UniProt Q9Y5A7)
log2 fold change (quisinostat): inactive: 0.205 | log2 fold change [5]: inactive: -0.019

NOS1AP (UniProt O75052)
log2 fold change (nilotinib): inactive: -0.363 | log2 fold change [1]: inactive: -0.058 | log2 fold change [2]: inactive: -0.006 | log2 fold change (quisinostat): inactive: -0.462 | log2 fold change (tipifarnib): inactive: 0 | log2 fold change [5]: inactive: -0.155 | log2 fold change [3]: inactive: 0.107 | log2 fold change [6]: inactive: 0.321

NMRK1 (UniProt Q9NWW6)
log2 fold change (quisinostat): inactive: -0.087 | log2 fold change [5]: inactive: -0.083

NPLOC4 (UniProt I3L3I1)
log2 fold change (dasatinib): inactive: 0.057 | log2 fold change [4]: inactive: -0.116 | log2 fold change (quisinostat): active: -0.986 | log2 fold change [5]: inactive: 0.196

NT5C (UniProt J3KSX6)
log2 fold change [3]: inactive: 0.115

NSMCE4A (UniProt Q9NXX6)
log2 fold change (nilotinib): inactive: -0.026 | log2 fold change [1]: inactive: -0.023 | log2 fold change (dasatinib): inactive: -0.017 | log2 fold change [2]: inactive: -0.049 | log2 fold change [4]: inactive: 0.045 | log2 fold change (quisinostat): inactive: -0.029 | log2 fold change (tipifarnib): inactive: 0.032 | log2 fold change [5]: inactive: 0.006 | log2 fold change [3]: inactive: 0.02 | log2 fold change [6]: inactive: -0.003

NME4 (UniProt O00746)
log2 fold change (quisinostat): inactive: -0.001 | log2 fold change [5]: inactive: 0.074 | log2 fold change [6]: inactive: -0.165

NOL4L (UniProt Q96MY1)
log2 fold change (dasatinib): inactive: 0.007 | log2 fold change [4]: inactive: 0.005 | log2 fold change [3]: inactive: -0.062 | log2 fold change [6]: inactive: -0.047

NSD2 (UniProt O96028)
log2 fold change (nilotinib): inactive: 0.117 | log2 fold change [1]: inactive: -0.055 | log2 fold change [2]: inactive: -0.106 | log2 fold change (quisinostat): inactive: -0.077 | log2 fold change (tipifarnib): inactive: 0.031 | log2 fold change [5]: inactive: -0.03 | log2 fold change [3]: inactive: -0.335

NTAN1 (UniProt Q96AB6)
log2 fold change (dasatinib): inactive: 0.06 | log2 fold change [4]: inactive: -0.056 | log2 fold change (quisinostat): inactive: 0.026 | log2 fold change [5]: inactive: 0.02 | log2 fold change [6]: inactive: 0.07

NOSIP (UniProt Q9Y314)
log2 fold change (nilotinib): inactive: 0.005 | log2 fold change [1]: inactive: 0.009 | log2 fold change (dasatinib): inactive: -0.018 | log2 fold change [2]: inactive: 0.027 | log2 fold change [4]: inactive: -0.019 | log2 fold change (quisinostat): inactive: -0.151 | log2 fold change (tipifarnib): inactive: -0.021 | log2 fold change [5]: inactive: 0.003 | log2 fold change [3]: inactive: -0.015 | log2 fold change [6]: inactive: 0.006

NUDT7 (UniProt P0C024)
log2 fold change (dasatinib): inactive: -0.087 | log2 fold change [4]: inactive: -0.003 | log2 fold change (quisinostat): inactive: 0.012 | log2 fold change [5]: inactive: -0.004 | log2 fold change [3]: inactive: 0.109 | log2 fold change [6]: inactive: -0.012

NPRL3 (UniProt Q12980)
log2 fold change (nilotinib): inactive: 0.031 | log2 fold change [1]: inactive: -0.01 | log2 fold change [2]: inactive: 0.24 | log2 fold change (quisinostat): inactive: -0.269 | log2 fold change (tipifarnib): inactive: -0.054 | log2 fold change [5]: inactive: 0.061 | log2 fold change [6]: inactive: 0.081

NME1 isoform 2 (UniProt P15531)
log2 fold change (dasatinib): inactive: 0.023 | log2 fold change [4]: inactive: -0.02 | log2 fold change (quisinostat): inactive: 0.098 | log2 fold change [5]: inactive: 0 | log2 fold change [3]: inactive: -0.053 | log2 fold change [6]: inactive: 0.06

NSA2 (UniProt O95478)
log2 fold change (nilotinib): inactive: 0.102 | log2 fold change [1]: inactive: -0.04 | log2 fold change (dasatinib): inactive: -0.323 | log2 fold change [2]: inactive: -0.08 | log2 fold change [4]: inactive: -0.113 | log2 fold change (tipifarnib): inactive: -0.004 | log2 fold change [3]: inactive: 0.076 | log2 fold change [6]: inactive: -0.15

NSD1 (UniProt Q96L73)
log2 fold change (nilotinib): inactive: 0.001 | log2 fold change [1]: inactive: -0.063 | log2 fold change (dasatinib): inactive: -0.01 | log2 fold change [2]: inactive: 0.006 | log2 fold change [4]: inactive: 0.123 | log2 fold change (tipifarnib): inactive: -0.052 | log2 fold change [3]: inactive: -0.004 | log2 fold change [6]: inactive: -0.096

NTRK1 (UniProt P04629)
log2 fold change (dasatinib): inactive: -0.002 | log2 fold change [4]: inactive: 0.138 | log2 fold change (quisinostat): inactive: -0.114 | log2 fold change [5]: inactive: 0.315

NR2C1 (UniProt P13056)
log2 fold change (nilotinib): inactive: -0.016 | log2 fold change [1]: inactive: 0.112 | log2 fold change [2]: inactive: 0.105 | log2 fold change (quisinostat): inactive: 0.206 | log2 fold change (tipifarnib): inactive: -0.112 | log2 fold change [5]: inactive: 0.068

NMU (UniProt P48645)
log2 fold change (quisinostat): inactive: 0.054 | log2 fold change [5]: inactive: 0 | log2 fold change [6]: inactive: -0.027

NUDT14 (UniProt O95848)
log2 fold change (dasatinib): inactive: 0.124 | log2 fold change [4]: inactive: -0.035 | log2 fold change (quisinostat): inactive: -0.131 | log2 fold change [5]: inactive: 0.06 | log2 fold change [3]: inactive: -0.062 | log2 fold change [6]: inactive: 0.315

NT5C2 (UniProt Q5JUV3)
log2 fold change (dasatinib): inactive: -0.092 | log2 fold change [4]: inactive: -0.096 | log2 fold change (quisinostat): inactive: -0.032 | log2 fold change [5]: inactive: 0.034

NOP58 (UniProt Q9Y2X3)
log2 fold change (nilotinib): inactive: 0.007 | log2 fold change [1]: inactive: 0.004 | log2 fold change (dasatinib): inactive: 0.014 | log2 fold change [2]: inactive: -0.003 | log2 fold change [4]: inactive: 0.036 | log2 fold change (quisinostat): inactive: -0.017 | log2 fold change (tipifarnib): inactive: 0.014 | log2 fold change [5]: inactive: 0.003 | log2 fold change [3]: inactive: 0.008 | log2 fold change [6]: inactive: 0.011

NSUN7 (UniProt Q8NE18)
log2 fold change (quisinostat): active: -0.573 | log2 fold change [5]: inactive: 0.01 | log2 fold change [3]: inactive: 0.009 | log2 fold change [6]: inactive: -0.031

NUDT5 (UniProt C9JYY9)
log2 fold change (nilotinib): inactive: -0.049 | log2 fold change [1]: inactive: 0.02 | log2 fold change [2]: inactive: 0.228 | log2 fold change (tipifarnib): inactive: -0.068 | log2 fold change [6]: inactive: -0.119

NPL (UniProt Q9BXD5)
log2 fold change (nilotinib): inactive: -0.021 | log2 fold change [1]: inactive: -0.03 | log2 fold change (dasatinib): inactive: 0.118 | log2 fold change [2]: inactive: -0.094 | log2 fold change [4]: inactive: 0.019 | log2 fold change (tipifarnib): inactive: -0.234 | log2 fold change [3]: inactive: 0.047 | log2 fold change [6]: inactive: 0

NUDT6 (UniProt P53370)
log2 fold change (dasatinib): inactive: -0.013 | log2 fold change [4]: inactive: 0.032 | log2 fold change (quisinostat): inactive: 0.021 | log2 fold change [5]: inactive: -0.03 | log2 fold change [6]: inactive: -0.058
